Source: patent US20240052053A1, “ENHANCEMENT OF ANTIBODY-DEPENDENT CELL-MEDIATED CYTOTOXICITY (ADCC)” (IO Biotech ApS, priority 2017, published 2024)
Entries after “also recorded” stand apart in the source; their conditions may differ. Read-outs that look alike come from different tables or passages of the source. At least one peptide structure holds a part that was inferred or is arguable (an end, a ring closure or a residue). Where no end group is shown, it is not given here.

Legend:
[1] = test system: PBMCs from healthy donors; test: IFN-γ ELISPOT after in vitro stimulation with IO103, healthy donor buffy coats/PBMCs; type: cell-based, human; settings: healthy donor PBMCs/buffy coat, stimulation with peptide 10 μM
RPMI-8226 cells = settings: for daratumumab activity (ADCC) against RPMI-8226: Example 2, MM leukapheresis products and healthy donor PBMCs stimulated with 10 μM peptide vs scrambled control, +/- 0.5 μg/ml daratumumab; for ADCC effect of daratumumab versus control peptide: with daratumumab 0.5 μg/ml
[2] = test system: leukapheresis products from patients with multiple myeloma; test: IFN-γ ELISPOT after in vitro stimulation with IO103, leukapheresis products; type: cell-based, human; settings: for PDL1 specific responses in the IFNγ ELISPOT assay: MM leukapheresis products, stimulation with peptide 10 μM vs control

“FMTYWHLLNAFTVTVPKDL [IO103, FMTYWHLLNAFTVTVPKDL]” was tested, and the “PDL1 specific responses in the IFNγ ELISPOT assay” value (shortened to “PDL1 specific responses”) [1] was “sometimes also demonstrate measurable PDL1 specific responses; also recorded: sometimes do not demonstrate measurable PDL1 specific responses”, the “daratumumab activity (ADCC) against RPMI-8226” value (RPMI-8226 cells) was “augments the ADCC effect of daratumumab” and the “daratumumab activity (ADCC) against RPMI-8226” value (RPMI-8226 cells; listed as PD-L1 peptide) was “frequently enhanced daratumumab activity”. The “ADCC effect of daratumumab versus control peptide” value (RPMI-8226 cells; healthy donor cells with PDL1 specific IFNγ response) was “enhancement of the ADCC effect of daratumumab”, the “ADCC effect of daratumumab versus control peptide” value (RPMI-8226 cells; healthy donor cells with PDL1 specific IFNγ response, listed as PDL1 long1) was “potentiation of ADCC by daratumumab” and the “ADCC effect of daratumumab versus control peptide” value (RPMI-8226 cells; healthy donor cells without PDL1 specific IFNγ response) was “no enhancement of the ADCC effect of daratumumab”. For the same sequence, the “ADCC effect of daratumumab versus control peptide” value (RPMI-8226 cells; healthy donor cells without PDL1 specific IFNγ response, listed as PDL1 long1) was “No potentiation of ADCC by daratumumab”, the “PDL1 specific responses” value [2] was “typically demonstrated measurable PDL1 specific responses” and the “PDL1 specific responses” value ([2]; listed as PDL1 long1) was “shows an IFN-γ response”. The “number of leukapheresis products with clear signs of responses (duplicate)” value ([2]; of 10 samples analyzed in duplicate, not meeting the standard definition of response) was 6 and the “number of leukapheresis products with IFN-γ responses seen in triplicate” value ([2]; of 19 viable MM leukapheresis products, response as defined by CIP and Moodie et al 2012, 7 days stimulation) was 7.
